Data source: PubChem BioAssay AID1259260 (Sanger Institute, 2017)

- Assay: 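Kinome knock-down with three anchor drugs to find synergy partners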 (primary screen)
- Cells: human NCI-H716 colorectal cancer cells
- Reagents: siRNA pool against human genes
- Treatment: anchor drugs BYL719 (alpelisib) 1 µM, cetuximab 5 µg/ml or trametinib 10 nM, each at a dose chosen to harm viability only mildly; DMSO vehicle for the knock-down-alone arm
- Detection: 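Mean viability over replicates against non-targeting siRNA, robust z-score without drug, and per-drug synergy comparing combined with single treatments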
- Reading the numbers: viability robust z-score, siRNA alone: higher = more surviving cells; below -3 called essential; viability vs control, no drug: higher = more surviving cells; synergy score with BYL719 and synergy score with cetuximab and synergy score with trametinib: higher = stronger synergy (synthetic lethality) with drug
- Hit rule: 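a knock-down counts as essential if its no-drug robust z-score is lower than -3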
- Meaning of the calls: active = essential (knock-down alone lowers viability); inactive = no essential effect
The whole screen tested 794 reagents; this is an unselected part. Of all reagents, 13 (1.6%) were called active. 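Calls reflect only knock-down without drug; synergy above 0.15 was grouped apart and does not change the call.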 Viability is capped at 1. Reagent sequences are not shown. Not given: the amount of reagent, the time to read-out.

| viability robust z-score, siRNA alone | viability vs control, no drug (fraction of control) | synergy score with BYL719 | synergy score with cetuximab | synergy score with trametinib | Outcome | gene knocked down | PubChem SID |
| --- | --- | --- | --- | --- | --- | --- | --- |
| 0.507 | 0.99 | -0.0304 | -0.0609 | -0.143 | inactive | CAMK1 (GeneID 8536) | SID56478929 |
| 0.602 | 1 | -0.0352 | -0.0996 | -0.0162 | inactive | CDC7 (GeneID 8317) | SID56478594 |
| -2.45 | 0.683 | -0.0629 | 0.00184 | 0.0877 | inactive | LMTK3 (GeneID 114783) | SID152150242 |
| 0.602 | 1 | -0.283 | -0.1 | -0.308 | inactive | TLK2 (GeneID 11011) | SID56479057 |
| -0.722 | 0.862 | -0.112 | -0.165 | 0.0509 | inactive | PRKDC (GeneID 5591) | SID56478960 |
| -1.22 | 0.81 | 0.0128 | -0.146 | 0.0672 | inactive | CDKL2 (GeneID 8999) | SID152156267 |
| 0.602 | 1 | -0.24 | -0.1 | -0.158 | inactive | CDK8 (GeneID 1024) | SID56478602 |
| 0.602 | 1 | -0.186 | -0.1 | -0.0771 | inactive | TSSK1B (GeneID 83942) | SID56478967 |
| 0.602 | 1 | -0.283 | -0.1 | -0.355 | inactive | TP53BP1 (GeneID 7158) | SID134309949 |
| -0.44 | 0.892 | -0.0611 | 0.0297 | -0.0784 | inactive | TAB1 (GeneID 10454) | SID135620883 |
| 0.602 | 1 | -0.283 | -0.1 | -0.244 | inactive | CASP8 (GeneID 841) | SID135620682 |

Individual results from the entries so far:
TSSK1B (GeneID 83942) [SID56478967], synergy score with cetuximab → -0.1
Value for CAMK1 (GeneID 8536) [SID56478929] in “Outcome”: inactive
Result of CDC7 (GeneID 8317) [SID56478594] under “Outcome”: inactive

The listing continues.
| viability robust z-score, siRNA alone | viability vs control, no drug (fraction of control) | synergy score with BYL719 | synergy score with cetuximab | synergy score with trametinib | Outcome | gene knocked down | PubChem SID |
| --- | --- | --- | --- | --- | --- | --- | --- |
| 0.602 | 1 | -0.0254 | 0.0567 | 0.151 | inactive | ALDH18A1 (GeneID 5832) | SID152152799 |
| -5.84 | 0.33 | -0.0721 | -0.0929 | 0.0436 | active | ELF3 (GeneID 1999) | SID135623079 |
| -1.66 | 0.765 | -0.373 | 0.143 | -0.116 | inactive | PRPS1L1 (GeneID 221823) | SID56479159 |
| 0.423 | 0.981 | -0.022 | -0.117 | 0.212 | inactive | MELK (GeneID 9833) | SID56478756 |
| 0.602 | 1 | -0.143 | -0.0867 | -0.0879 | inactive | WNK2 (GeneID 65268) | SID56479037 |
| -3.45 | 0.579 | -0.132 | -0.0327 | 0.14 | active | WIPF1 (GeneID 7456) | SID152149422 |
| 0.602 | 1 | -0.0715 | -0.0351 | -0.0305 | inactive | STK33 (GeneID 65975) | SID56479053 |
| 0.602 | 1 | -0.256 | -0.1 | 0.0901 | inactive | NEK1 (GeneID 4750) | SID152155530 |
| 0.602 | 1 | -0.2 | -0.1 | -0.127 | inactive | MAST1 (GeneID 22983) | SID135620865 |
